{"source": "PubChem BioAssay AID1259405 (NCATS, 2018)", "screen": "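Knock-downs that lift recombinant protein yield in hamster ovary cells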 (primary screen)", "system": "Chinese hamster CHO-K1 ovary cells with stable secreted eGFP expression", "knock-down reagent": "single siRNA against mouse genes, 0.8 pmol siRNA per well (2 µl of 400 nM stock)", "time to read-out": "3 days", "measured": "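Percent of the per-plate non-targeting control median for intracellular GFP per well by laser scanning cytometry and for cell viability by ATP luminescence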", "direction": "GFP, % of control: higher = more GFP per well, higher productivity; viability (ATP), % of control: higher = more viable cells (more ATP)", "call rule": "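Called active when intracellular GFP, relative to negative control, is at or above 120%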", "note": "The deposit covers about 50,000 reagents; this is a random part of them. About 4,000 of them (8%) were called active. 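Mouse siRNA library applied to hamster cells; one well for each siRNA.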 Reagents against one gene are numbered here. Reagent sequences are not shown."}
{"target gene": "Stfa3 (stefin A3)", "siRNA no.": 1, "GFP, % of control": 61.7, "viability (ATP), % of control": 37.7, "outcome": "inactive"}
{"target gene": "Stfa3 (stefin A3)", "siRNA no.": 2, "GFP, % of control": 85, "viability (ATP), % of control": 70.1, "outcome": "inactive"}
{"target gene": "Stfa3 (stefin A3)", "siRNA no.": 3, "GFP, % of control": 92.9, "viability (ATP), % of control": 80.1, "outcome": "inactive"}
{"target gene": "Nipbl (NIPBL cohesin loading factor)", "siRNA no.": 1, "GFP, % of control": 236, "viability (ATP), % of control": 152, "outcome": "active"}
{"target gene": "Nipbl (NIPBL cohesin loading factor)", "siRNA no.": 2, "GFP, % of control": 62.6, "viability (ATP), % of control": 50.2, "outcome": "inactive"}
{"target gene": "Nipbl (NIPBL cohesin loading factor)", "siRNA no.": 3, "GFP, % of control": 63, "viability (ATP), % of control": 73.4, "outcome": "inactive"}
{"target gene": "Nipbl (NIPBL cohesin loading factor)", "siRNA no.": 4, "GFP, % of control": 83.2, "viability (ATP), % of control": 85, "outcome": "inactive"}
{"target gene": "Nipbl (NIPBL cohesin loading factor)", "siRNA no.": 5, "GFP, % of control": 120, "viability (ATP), % of control": 74.2, "outcome": "active"}
{"target gene": "Nipbl (NIPBL cohesin loading factor)", "siRNA no.": 6, "GFP, % of control": 91.3, "viability (ATP), % of control": 88, "outcome": "inactive"}
{"target gene": "Stx2 (syntaxin 2)", "siRNA no.": 1, "GFP, % of control": 59.1, "viability (ATP), % of control": 46.4, "outcome": "inactive"}
{"target gene": "Stx2 (syntaxin 2)", "siRNA no.": 2, "GFP, % of control": 69.9, "viability (ATP), % of control": 66.6, "outcome": "inactive"}
{"target gene": "Stx2 (syntaxin 2)", "siRNA no.": 3, "GFP, % of control": 64.2, "viability (ATP), % of control": 61.1, "outcome": "inactive"}
{"target gene": "Omt2b (oocyte maturation, beta)", "siRNA no.": 1, "GFP, % of control": 83.5, "viability (ATP), % of control": 47, "outcome": "inactive"}
{"target gene": "Omt2b (oocyte maturation, beta)", "siRNA no.": 2, "GFP, % of control": 70.9, "viability (ATP), % of control": 78.5, "outcome": "inactive"}
{"target gene": "Omt2b (oocyte maturation, beta)", "siRNA no.": 3, "GFP, % of control": 74.9, "viability (ATP), % of control": 41.6, "outcome": "inactive"}
{"target gene": "Dact1 (dishevelled-binding antagonist of beta-catenin 1)", "siRNA no.": 1, "GFP, % of control": 64.8, "viability (ATP), % of control": 84.8, "outcome": "inactive"}
{"target gene": "Dact1 (dishevelled-binding antagonist of beta-catenin 1)", "siRNA no.": 2, "GFP, % of control": 54.3, "viability (ATP), % of control": 59.5, "outcome": "inactive"}
{"target gene": "Dact1 (dishevelled-binding antagonist of beta-catenin 1)", "siRNA no.": 3, "GFP, % of control": 87.4, "viability (ATP), % of control": 87.1, "outcome": "inactive"}
{"target gene": "Usp21 (ubiquitin specific peptidase 21)", "siRNA no.": 1, "GFP, % of control": 70, "viability (ATP), % of control": 35.9, "outcome": "inactive"}
{"target gene": "Usp21 (ubiquitin specific peptidase 21)", "siRNA no.": 2, "GFP, % of control": 58.5, "viability (ATP), % of control": 50.7, "outcome": "inactive"}
{"target gene": "Usp21 (ubiquitin specific peptidase 21)", "siRNA no.": 3, "GFP, % of control": 76.1, "viability (ATP), % of control": 88.7, "outcome": "inactive"}
{"target gene": "Adamts7 (ADAM metallopeptidase with thrombospondin type 1 motif 7)", "siRNA no.": 1, "GFP, % of control": 67.9, "viability (ATP), % of control": 82.6, "outcome": "inactive"}
{"target gene": "Adamts7 (ADAM metallopeptidase with thrombospondin type 1 motif 7)", "siRNA no.": 2, "GFP, % of control": 99.1, "viability (ATP), % of control": 76.3, "outcome": "inactive"}
{"target gene": "Adamts7 (ADAM metallopeptidase with thrombospondin type 1 motif 7)", "siRNA no.": 3, "GFP, % of control": 87.9, "viability (ATP), % of control": 56.5, "outcome": "inactive"}
{"target gene": "Polr3b (polymerase (RNA) III (DNA directed) polypeptide B)", "siRNA no.": 1, "GFP, % of control": 114, "viability (ATP), % of control": 128, "outcome": "inactive"}
{"target gene": "Polr3b (polymerase (RNA) III (DNA directed) polypeptide B)", "siRNA no.": 2, "GFP, % of control": 61.8, "viability (ATP), % of control": 69.9, "outcome": "inactive"}
{"target gene": "Msx2 (msh homeobox 2)", "siRNA no.": 1, "GFP, % of control": 75.3, "viability (ATP), % of control": 60.2, "outcome": "inactive"}
{"target gene": "Msx2 (msh homeobox 2)", "siRNA no.": 2, "GFP, % of control": 45.7, "viability (ATP), % of control": 66.4, "outcome": "inactive"}
{"target gene": "Msx2 (msh homeobox 2)", "siRNA no.": 3, "GFP, % of control": 85.1, "viability (ATP), % of control": 69.2, "outcome": "inactive"}
{"target gene": "Ube2f (ubiquitin-conjugating enzyme E2F (putative))", "siRNA no.": 1, "GFP, % of control": 39.3, "viability (ATP), % of control": 44.1, "outcome": "inactive"}
{"target gene": "Ube2f (ubiquitin-conjugating enzyme E2F (putative))", "siRNA no.": 2, "GFP, % of control": 113, "viability (ATP), % of control": 101, "outcome": "inactive"}
{"target gene": "Ube2f (ubiquitin-conjugating enzyme E2F (putative))", "siRNA no.": 3, "GFP, % of control": 110, "viability (ATP), % of control": 107, "outcome": "inactive"}
{"target gene": "Arhgap26 (Rho GTPase activating protein 26)", "siRNA no.": 1, "GFP, % of control": 112, "viability (ATP), % of control": 109, "outcome": "inactive"}
{"target gene": "Arhgap26 (Rho GTPase activating protein 26)", "siRNA no.": 2, "GFP, % of control": 62.3, "viability (ATP), % of control": 110, "outcome": "inactive"}
{"target gene": "Arhgap26 (Rho GTPase activating protein 26)", "siRNA no.": 3, "GFP, % of control": 72.5, "viability (ATP), % of control": 68.9, "outcome": "inactive"}
{"target gene": "Defb21 (defensin beta 21)", "siRNA no.": 1, "GFP, % of control": 81.4, "viability (ATP), % of control": 82.8, "outcome": "inactive"}
{"target gene": "Defb21 (defensin beta 21)", "siRNA no.": 2, "GFP, % of control": 67, "viability (ATP), % of control": 41, "outcome": "inactive"}
{"target gene": "Defb21 (defensin beta 21)", "siRNA no.": 3, "GFP, % of control": 55, "viability (ATP), % of control": 63.8, "outcome": "inactive"}
{"target gene": "Cxcr2 (C-X-C motif chemokine receptor 2)", "siRNA no.": 1, "GFP, % of control": 117, "viability (ATP), % of control": 99.4, "outcome": "inactive"}
{"target gene": "Cxcr2 (C-X-C motif chemokine receptor 2)", "siRNA no.": 2, "GFP, % of control": 79.1, "viability (ATP), % of control": 80.3, "outcome": "inactive"}
{"target gene": "Cxcr2 (C-X-C motif chemokine receptor 2)", "siRNA no.": 3, "GFP, % of control": 55.1, "viability (ATP), % of control": 50.4, "outcome": "inactive"}
{"target gene": "Wdr20 (WD repeat domain 20)", "siRNA no.": 1, "GFP, % of control": 41.6, "viability (ATP), % of control": 67.9, "outcome": "inactive"}
{"target gene": "Wdr20 (WD repeat domain 20)", "siRNA no.": 2, "GFP, % of control": 82.1, "viability (ATP), % of control": 60.8, "outcome": "inactive"}
{"target gene": "Wdr20 (WD repeat domain 20)", "siRNA no.": 3, "GFP, % of control": 88.4, "viability (ATP), % of control": 97.8, "outcome": "inactive"}
{"target gene": "Or9a2 (olfactory receptor family 9 subfamily A member 2)", "siRNA no.": 1, "GFP, % of control": 30.7, "viability (ATP), % of control": 26.1, "outcome": "inactive"}
{"target gene": "Or9a2 (olfactory receptor family 9 subfamily A member 2)", "siRNA no.": 2, "GFP, % of control": 68, "viability (ATP), % of control": 79.5, "outcome": "inactive"}
{"target gene": "Or9a2 (olfactory receptor family 9 subfamily A member 2)", "siRNA no.": 3, "GFP, % of control": 50.6, "viability (ATP), % of control": 74.9, "outcome": "inactive"}
{"target gene": "Nlgn1 (neuroligin 1)", "siRNA no.": 1, "GFP, % of control": 94.1, "viability (ATP), % of control": 85.5, "outcome": "inactive"}
{"target gene": "Nlgn1 (neuroligin 1)", "siRNA no.": 2, "GFP, % of control": 72.7, "viability (ATP), % of control": 79.5, "outcome": "inactive"}
{"target gene": "Nlgn1 (neuroligin 1)", "siRNA no.": 3, "GFP, % of control": 95.7, "viability (ATP), % of control": 125, "outcome": "inactive"}
{"target gene": "Selplg (selectin, platelet (p-selectin) ligand)", "siRNA no.": 1, "GFP, % of control": 31.2, "viability (ATP), % of control": 38.5, "outcome": "inactive"}
{"target gene": "Selplg (selectin, platelet (p-selectin) ligand)", "siRNA no.": 2, "GFP, % of control": 61.4, "viability (ATP), % of control": 99.8, "outcome": "inactive"}
{"target gene": "Selplg (selectin, platelet (p-selectin) ligand)", "siRNA no.": 3, "GFP, % of control": 156, "viability (ATP), % of control": 76.1, "outcome": "active"}

Entries listed so far whose gene name begins with O or o:
{"target gene": "Omt2b (oocyte maturation, beta)", "siRNA no.": 1, "GFP, % of control": 83.5, "viability (ATP), % of control": 47, "outcome": "inactive"}
{"target gene": "Omt2b (oocyte maturation, beta)", "siRNA no.": 2, "GFP, % of control": 70.9, "viability (ATP), % of control": 78.5, "outcome": "inactive"}
{"target gene": "Omt2b (oocyte maturation, beta)", "siRNA no.": 3, "GFP, % of control": 74.9, "viability (ATP), % of control": 41.6, "outcome": "inactive"}
{"target gene": "Or9a2 (olfactory receptor family 9 subfamily A member 2)", "siRNA no.": 1, "GFP, % of control": 30.7, "viability (ATP), % of control": 26.1, "outcome": "inactive"}
{"target gene": "Or9a2 (olfactory receptor family 9 subfamily A member 2)", "siRNA no.": 2, "GFP, % of control": 68, "viability (ATP), % of control": 79.5, "outcome": "inactive"}
{"target gene": "Or9a2 (olfactory receptor family 9 subfamily A member 2)", "siRNA no.": 3, "GFP, % of control": 50.6, "viability (ATP), % of control": 74.9, "outcome": "inactive"}
